{
  "source": "patent US20150010932A1",
  "about": "(SALK INSTITUTE FOR BIOLOGICAL STUDIES, published 2015)",
  "binders": {"B1": {"name": "nLuc-Linker1-HA-Ube2d3 (other)", "chain": "MEDAKNIKKGPAPFYPLEDGTAGEQLHKAMKRYALVPGTIAFTDAHIEVDITYAEYFEMSVRLAEAMKRYGLNTNHRIVVCSENSLQFFMPVLGALFIGVAVAPANDIYNERELLNSMGISQPTVVFVSKKGLQKILNVQKKLPIIQKIIIMDSKTDYQGFQSMYTFVTSHLPPGFNEYDFVPESFDRDKTIALIMNSSGSTGLPKGVALPHRTACVRFSHARDPIFGNQIIPDTAILSVVPFHHGFGMFTTLGYLICGFRVVLMYRFEEELFLRSLQDYKIQSALLVPTLFSFFAKSTLIDKYDLSNLHEIASGGAPLSKEVGEAVAKRFHLPGIRQGYGLTETTSAILITPEGDDKPGAVGKVVPFFEAKVVDLDTGKTLGVNQRGELCVRGPMIMSGYVNNPEATNALIDKDGGGGSGGGQISYASRGYPYDVPDYAGSSGALKRINKELSDLARDPPAQCSAGPVGDDMFHWQATIMGPNDSPYQGGVFFLTIHFPTDYPFKPPKVAFTTRIYHPNINSNGSICLDILRSQWSPALTISKVLLSICSLLCDPNPDDPLVPEIARIYKTDRDKYNRISREWTQKYAM", "notes": "also called nLuc-Ube2d3; UbcH5c"}},
  "biological_target": "T1, cLuc-Linker1-Flag-Mdm2",
  "T1 construct": "also called cLuc-Mdm2; Mdm2 E3 ligase",
  "assay": "BiLC in living U2OS cells",
  "data": [
    {"binder": "B1", "values": [
      {"measurement": "binding result", "result": "no binding"}
    ]}
  ]
}
